These results are taken from PubChem BioAssay AID2685 (National Center for Advancing Translational Sciences (NCATS), 2010).

Each structure is given as a SMILES string. The list shows a part of the results. These are further read-outs of the screen, such as a control signal, another cell line or another target. No call is given for them. Most of these compounds were active or inconclusive in the main read-out, so they are no random draw. Potencies come from curve fits of mixed quality, noted in brackets.

This experiment can be described thus: qHTS Assay for Lipid Storage Modulators in Drosophila S3 Cells.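 For cell number change: cells counted by Cell Tracker Red CMTPX staining in the red channel.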 The following applies: BODIPY lipid droplet fluorescence, 18-24 h; for cell number change: measured here: cell count max response, cells fed with added oleic acid. The method in brief: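 Drosophila S3 cells got compounds at several concentrations plus oleic acid (400 uM solution). Laser-scanning cytometry with 488 nm excitation read lipid droplets at 500-530 nm and cells at 575-640 nm. Percent activity was relative to 20 uM Triacsin C.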
On the technique in general: In qHTS, concentration-response curves come from the screen itself.

Where [1] appears, read: measured here: lipid fluorescence (Fed channel) AC50, cells fed with added oleic acid.
Where [2] appears, read: measured here: cell number channel AC50, cells fed with added oleic acid.

As for `Cc1nn(CC(=O)Nc2ccc(Cl)cc2)c(=O)c2cc(-c3ccccc3)nn12`, the cell number change was -8.55%. In addition, the AC50 (in general, the midpoint of the concentration-response curve, whichever way the signal moves) under setting [1] is 0.13 µM [falling, full curve, poor fit].

On to `CCCOC(=O)C[N+](C)(C)CCOC1CC2CCC1(C)C2(C)C` (configuration not stated), for which the cell number change was 22.6%.

For the compound `Cc1cc(C(=O)NC2CC(C)(C)Cc3c2cnn3-c2cccc(F)c2)nn1C` (configuration not stated), the cell number change is -6.65%. Further, the AC50 under setting [1] is 0.00517 µM [rising, full curve, poor fit].

On to `CCOC(=O)C1CCN(C(=O)c2cccc(S(=O)(=O)NCc3ccccc3)c2)CC1`, for which the cell number change amounted to 36.4%. In addition, the AC50 under setting [2] was 29.1 µM [rising, single point]. In addition, the AC50 under setting [1] is 1.16 µM [falling, full curve, poor fit].

Take `COc1ccc(C(=O)NCCNC(=O)c2cc(OCC(F)(F)F)ccc2OCC(F)(F)F)cc1`: the cell number change was -12.6%. The AC50 under setting [1] is 8.2 µM [rising, partial curve, poor fit].

With `C/C(=N\NC(=O)C(O)c1ccccc1)c1ccc(Cl)cc1` (configuration not stated), the cell number change is -25.5%. In addition, the AC50 under setting [1] is 2.91 µM [falling, partial curve].

`CC(/C=N/n1c(COc2ccccc2)n[nH]c1=S)=C\c1ccco1`: the cell number change is -27.8%. Further, the AC50 under setting [1] is 32.6 µM [falling, single point].

For `CC(=O)c1coc2c1cc(O)c1ccccc12`, the cell number change turned out to be 9.46%. For the same compound, the AC50 under setting [1] is 6.51 µM [falling, single point].

For `Cc1ccc(-c2cc(-c3ccccc3Cl)[nH]n2)c(O)c1`, the cell number change was -68.5%. For the same compound, under setting [2], the AC50 was 29.1 µM [falling, single point]. In addition, the AC50 under setting [1] is 0.00517 µM [falling, full curve, poor fit].

As for `CCCC(=O)Nc1ccc2c(c1)c1ccccc1n2CC`, the AC50 under setting [2] was 6.51 µM [rising, single point].

Turning to `O=c1cc(CSc2nnc(Nc3ccccc3)s2)nc2sccn12`, the cell number change came out at 23.6%. The AC50 under setting [2] was 0.92 µM [rising, full curve, poor fit]. Under setting [1], the concentration at half-maximal activity (AC50) was 0.82 µM [rising, full curve].

Turning to `CCN(C(=O)COC(=O)CCOc1cccc(C)c1)c1c(N)n(Cc2ccccc2)c(=O)[nH]c1=O`, the cell number change was 14.8%. The AC50 under setting [1] was 0.82 µM [falling, single point].

For the compound `Cn1nnnc1Sc1ncnc2scc(-c3cccs3)c12`, the cell number change came out at 10.2%. In addition, the AC50 under setting [1] was 0.146 µM [rising, full curve, poor fit].

On to `Cc1nn(-c2ccccc2)c2c1C(c1ccc(Cl)cc1)N(c1ccccc1)C(=O)N2` (configuration not stated), for which the cell number change turned out to be 45.8%. The AC50 under setting [2] is 3.26 µM [falling, partial curve]. Besides, under setting [1], the concentration at half-maximal activity (AC50) is 6.51 µM [falling, single point].

Regarding `CCOC(=O)Cc1nnn(CC(=O)OCC)n1`, the cell number change stood at 22.8%. In addition, the concentration at half-maximal activity (AC50) under setting [1] was 5.8 µM [rising, single point].

Consider `C=CCn1c(Cc2cccs2)nnc1SCC(=O)Nc1ccc(C(=O)OCC)cc1`, for which the cell number change was 91.5%. For the same compound, the AC50 under setting [2] is 5.17 µM [rising, full curve]. Also, the AC50 under setting [1] is 1.16 µM [rising, full curve, poor fit].

Turning to `O=C(NNC(=O)c1cc([N+](=O)[O-])ccc1Cl)c1cccnc1`, the cell number change is -3.68%. Moreover, the AC50 under setting [2] is 0.0058 µM [falling, full curve, poor fit].

In the case of `O=C(O)c1ccc(Cl)c(NC(=O)C2CCCN2S(=O)(=O)c2cccc3nsnc23)c1` (configuration not stated), the cell number change is -12.8%. The AC50 under setting [1] was 5.17 µM [falling, full curve].

Regarding `Cc1ccc(OCC(=O)NNC(=S)NC(=O)C2CCCCC2)c(C)c1`, the cell number change is 5.95%. Further, the AC50 under setting [1] was 1.16 µM [rising, full curve].

Consider `CCc1nnc(NC(=O)c2ccc(S(=O)(=O)N3CCCCC3C)cc2)s1` (configuration not stated), for which the cell number change turned out to be 0.0646%. The AC50 under setting [1] was 6.51 µM [rising, single point].

Turning to `CS(=O)(=O)N1CCC(C(=O)O)CC1`, the cell number change was 24.3%. Moreover, the AC50 under setting [1] was 6.51 µM [falling, single point].

As to `CCOC(=O)CSc1nnc(-c2ccc(Cl)cc2Cl)o1`, the cell number change was -203%. Besides, under setting [2], the AC50 was 23.1 µM [falling, single point]. The half-maximal activity concentration (AC50) under setting [1] was 29.1 µM [falling, single point].

As for `O=C(CSc1ccc(Cl)cc1)N1CCN(c2ccc([N+](=O)[O-])cc2Cl)CC1`, the cell number change was -22.5%. Besides, under setting [1], the AC50 is 9.2 µM [rising, partial curve, poor fit].

With `CN(Cc1nc2ccccc2c(=O)[nH]1)C(=O)c1ccc(S(=O)(=O)N(C)C)cc1`, the cell number change amounted to 74.2%. The AC50 under setting [2] is 13 µM [rising, partial curve].

On to `Cc1ccc(OCC(O)CN2C(=O)NC(C)(C)C2=O)cc1C` (configuration not stated), for which the cell number change is 4.72%. Further, the concentration at half-maximal activity (AC50) under setting [1] was 18.4 µM [falling, partial curve].

Consider `CN(c1ccccc1)S(=O)(=O)c1ccc(C(=O)NCC2CCCO2)cc1` (configuration not stated), for which, under setting [1], the AC50 was 6.51 µM [falling, partial curve, poor fit].

With `CCn1c(SCC(=O)NNC(=O)Cc2ccccc2)nnc1-c1ccncc1`, the cell number change is 5.76%. For the same compound, the AC50 under setting [1] is 1.64 µM [falling, partial curve].

In the case of `S=C1CCSc2ccc(Cl)cc2N1`, the cell number change is 4.22%. Besides, the AC50 under setting [1] was 0.164 µM [rising, full curve, poor fit].

For `Cc1ccccc1Cn1c(CN2CCN(c3ccc(F)cc3)CC2)nc2c1c(=O)n(C)c(=O)n2C`, the cell number change is -0.195%. The concentration at half-maximal activity (AC50) under setting [1] was 0.103 µM [rising, partial curve, poor fit].

Turning to `O=C(Nc1ccccn1)c1cc(-c2cccc(Cl)c2)nc2ccccc12`, the cell number change was 0.615%. Moreover, the AC50 under setting [2] is 1.16 µM [falling, full curve]. The AC50 under setting [1] was 0.58 µM [falling, full curve].

`COc1ccc(C(=O)CCC(=O)Nc2cccnc2)c(OC)c1`: the cell number change is -6.25%. Moreover, under setting [1], the AC50 was 25.9 µM [rising, single point].

Regarding `O=C(Nc1ccccc1)Nc1csc2ccccc12`, the cell number change was -29.5%. Further, the AC50 under setting [1] is 16.4 µM [falling, single point].

`C=CCn1c(SCC(=O)Nc2sccc2C(N)=O)nc2ccccc2c1=O`: the cell number change was -60.7%. Further, under setting [1], the half-maximal activity concentration (AC50) was 0.13 µM [rising, full curve, poor fit].

As to `COC(=O)c1cccc(NC(=S)NCCC2=CCCCC2)c1`, the cell number change is -13.6%. In addition, under setting [1], the AC50 is 0.103 µM [falling, full curve, poor fit].

Turning to `CC(/C=C/c1ccccc1)=N\Nc1nc2c(c(=O)[nH]c(=O)n2C)n1CCO`, the cell number change was determined as 2.31%. In addition, the AC50 under setting [1] was 2.31 µM [rising, partial curve, poor fit].

As for `COC(=O)C1=C(C)N(C)C(C)=C(C(=O)OC)C1c1ccncc1`, the cell number change is 19.5%. In addition, the AC50 under setting [1] is 20.6 µM [rising, single point].

With `COc1ccc(CC(=O)NNS(=O)(=O)c2ccccc2[N+](=O)[O-])cc1`, the cell number change was 14.5%. In addition, the AC50 under setting [2] was 0.0326 µM [rising, full curve, poor fit].

As to `OCCN(CCCn1c(-c2ccncc2)nc2ccccc21)c1nc(CN2CCCCC2)cs1`, the cell number change was 12.3%. Further, under setting [1], the AC50 was 3.66 µM [falling, full curve, poor fit].

Take `CSc1cccc(NS(=O)(=O)c2ccc(C(C)=O)cc2)c1`: the cell number change was -9.36%. The AC50 under setting [1] was 4.11 µM [falling, single point].

For the compound `O=[N+]([O-])c1ccccc1N/N=C/c1c[nH]c2ccccc12`, the cell number change was -98%. Besides, the AC50 under setting [2] was 20.6 µM [falling, partial curve].

`CCOC(=O)Cc1csc(NC(=O)c2sc3nc4ccc(CC)cc4cc3c2N)n1`: the cell number change was 104%. The concentration at half-maximal activity (AC50) under setting [2] is 20.6 µM [rising, partial curve]. Also, the AC50 under setting [1] is 1.46 µM [falling, partial curve].

In the case of `Cc1c(NC(=O)c2cc(-c3ccc(Br)cc3)on2)c(=O)n(-c2ccccc2)n1C`, the cell number change worked out at 23%.

Regarding `CCN(CC)C(=O)c1[nH]cnc1C(=O)Nc1ccc(C)cc1`, the cell number change was -22.3%. Further, the AC50 under setting [1] was 0.13 µM [rising, single point].

As for `CCOC(=O)/C(C#N)=C1/C=Cc2ccccc2N1CC`, the cell number change was -26.2%.

With `CCOC(=O)c1cc(-c2ccccc2)sc1NC(=O)CN1C(=O)NC(CC)(c2ccccc2)C1=O` (configuration not stated), the cell number change was 49%. The concentration at half-maximal activity (AC50) under setting [2] was 2.91 µM [rising, full curve]. For the same compound, the AC50 under setting [1] was 4.11 µM [rising, partial curve].

On to `O=C(CSc1nnc2ccccn12)Nc1ccccc1C(=O)NC1CC1`, for which the AC50 under setting [1] was 18.4 µM [rising, partial curve, poor fit].

As to `CCOC(=O)c1sc2nc3c(SCCC(=O)O)cc(C(=O)c4cc(OC)ccc4O)cn3c(=O)c2c1C`, the cell number change turned out to be 9.94%.

For the compound `CCN1CCN(CC(=O)N2N=C(c3cccs3)CC2c2ccc(C)cc2)C(=O)C1=O` (configuration not stated), the cell number change is 3.69%. Further, the AC50 under setting [2] is 0.00461 µM [falling, full curve, poor fit]. Besides, the AC50 under setting [1] was 0.00461 µM [falling, full curve, poor fit].

As for `CC(C)N(C(=O)NC(=O)Nc1ccc(S(=O)(=O)N2CCCC2)cc1)S(C)(=O)=O`, the cell number change was -19.8%.

For the compound `CC(C)(C)c1ccccc1NC(=O)c1ccc(-n2cncn2)c([N+](=O)[O-])c1`, the cell number change came to 31.2%. In addition, the AC50 under setting [2] is 29.1 µM [rising, single point].

With `CCn1c(SCC(=O)Nc2nccs2)nnc1C1CC1`, the cell number change is -6.35%. Moreover, the AC50 under setting [1] is 0.13 µM [rising, full curve].

As to `CCn1cc(C(=O)NCCc2ccccc2)c(=O)c2cc(S(=O)(=O)N(C)C)ccc21`, the cell number change was 9.56%. Further, the AC50 under setting [1] was 0.58 µM [falling, full curve].

Turning to `CCOC(=O)c1sc(NC(=O)C(C)Sc2nc(N)cc(=O)[nH]2)nc1C` (configuration not stated), the cell number change stood at 62.3%. Besides, the AC50 under setting [2] is 4.61 µM [rising, full curve].

For `Cc1ccccc1NC(=O)CSc1n[nH]c(-c2ccccn2)n1`, the cell number change is -26.2%. Also, the AC50 under setting [1] was 29.1 µM [falling, partial curve].

With `CCc1ccc(CNC(=O)C2CC(=O)N(CCc3ccc(C)cc3)C2)cc1` (configuration not stated), the cell number change was 76.6%. In addition, the AC50 under setting [2] is 23.1 µM [rising, partial curve]. Besides, under setting [1], the AC50 was 0.00461 µM [rising, full curve, poor fit].

`CCOc1cccc2sc(N(CCN(CC)CC)C(=O)c3ccc(S(=O)(=O)N4CCCCC4)cc3)nc12`: the cell number change is -6.95%. Also, the AC50 under setting [1] was 0.184 µM [falling, full curve, poor fit].

In the case of `CC(=O)OCCCN1C(=O)c2cccc3cc(Br)cc(c23)C1=O`, the cell number change is -26%. Moreover, the half-maximal activity concentration (AC50) under setting [1] is 29.1 µM [falling, single point].
